The source of these data is paper PMC12043649.

Sequences of proteins named here, by UniProt entry; tags and fusion partners are left off.
UniProt P12004: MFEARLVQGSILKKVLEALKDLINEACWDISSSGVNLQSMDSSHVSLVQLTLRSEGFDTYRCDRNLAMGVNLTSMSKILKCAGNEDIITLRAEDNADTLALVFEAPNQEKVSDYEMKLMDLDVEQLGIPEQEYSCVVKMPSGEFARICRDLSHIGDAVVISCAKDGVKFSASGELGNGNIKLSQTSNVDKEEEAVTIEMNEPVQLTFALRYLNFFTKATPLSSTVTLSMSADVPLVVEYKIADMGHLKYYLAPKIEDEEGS
UniProt P09874: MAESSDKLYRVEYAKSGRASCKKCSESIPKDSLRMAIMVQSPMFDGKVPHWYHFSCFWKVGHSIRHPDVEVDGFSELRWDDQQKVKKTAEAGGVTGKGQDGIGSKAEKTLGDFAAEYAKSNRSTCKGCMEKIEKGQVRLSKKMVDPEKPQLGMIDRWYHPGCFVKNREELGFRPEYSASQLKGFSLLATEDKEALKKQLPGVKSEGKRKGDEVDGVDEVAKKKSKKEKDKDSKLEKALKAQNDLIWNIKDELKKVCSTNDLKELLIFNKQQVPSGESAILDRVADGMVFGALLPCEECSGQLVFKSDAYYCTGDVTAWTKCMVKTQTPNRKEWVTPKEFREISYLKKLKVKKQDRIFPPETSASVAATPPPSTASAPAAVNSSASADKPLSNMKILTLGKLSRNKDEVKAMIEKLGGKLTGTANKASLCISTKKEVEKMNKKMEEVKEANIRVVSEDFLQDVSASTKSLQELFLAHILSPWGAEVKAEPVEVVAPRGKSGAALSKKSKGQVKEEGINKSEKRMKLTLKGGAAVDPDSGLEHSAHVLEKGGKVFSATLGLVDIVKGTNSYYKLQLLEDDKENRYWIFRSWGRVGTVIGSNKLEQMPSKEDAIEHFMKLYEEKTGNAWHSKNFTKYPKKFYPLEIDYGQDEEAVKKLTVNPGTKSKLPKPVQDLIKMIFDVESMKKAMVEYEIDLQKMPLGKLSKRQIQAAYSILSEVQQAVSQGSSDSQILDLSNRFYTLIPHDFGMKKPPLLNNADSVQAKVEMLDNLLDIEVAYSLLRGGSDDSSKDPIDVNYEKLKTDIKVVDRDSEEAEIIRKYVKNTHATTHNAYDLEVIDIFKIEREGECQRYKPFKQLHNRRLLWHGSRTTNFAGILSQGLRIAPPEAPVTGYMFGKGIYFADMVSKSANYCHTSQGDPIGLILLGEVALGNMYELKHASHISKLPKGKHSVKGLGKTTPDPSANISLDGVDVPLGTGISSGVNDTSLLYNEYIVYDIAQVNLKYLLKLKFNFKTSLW

The target of this test is Proliferating cell nuclear antigen (PCNA) (human (endogenous in HCC cell lines)) (UniProt P12004). Nature of the test: co-IP; Protein A/G Magnetic IP/Co-IP kit; cells lysed in enhanced lysis buffer with protease and phosphatase inhibitors; supernatants incubated with 1-4 ug of primary antibodies overnight at 4°C, then immunoblotting. (A western blot detects proteins with antibodies after separation by electrophoresis.)

No constants are given. Whether binding was seen depends on the method and setting. In cells and extracts the contact can be indirect. Some entries that bind do so weakly or less than the wild type.

In the case of “poly (ADP-ribose) polymerase 1 (PARP1) (from UniProt P09874 1-1014)”, the binding entry is on record as “binds”.
